Source: PubChem BioAssay AID1259424 (University of Nebraska Medical Center, 2018)
The whole screen tested about 14,000 reagents; below is a random part of them. 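Higher correlation or smaller distance means closer resemblance to KSR1 loss; control wells, including KSR1 knockdowns, recur on many plates.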 Not stated in the record: the time to read-out.

- Screen: 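Rank knockdowns across the genome by resemblance to the KSR1 depletion profile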 (primary screen)
- System: human HCT116 colon cancer cells
- Reagent: siRNA pool against human genes, 50 nM
- Read-out: 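Log2 levels of six mRNAs (branched-DNA multiplex), adjusted by two reference genes and the non-targeting median, then scored against the average KSR1 knockdown pattern as Pearson r and euclidean distance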
- Scale: mean correlation with KSR1 profile and KSR1 correlation: higher = expression change more like KSR1 knockdown; mean distance from KSR1 profile: higher = expression change less like KSR1 knockdown

| Gene | mean correlation with KSR1 profile | mean distance from KSR1 profile | KSR1 correlation, replicate 1 | KSR1 correlation, replicate 2 | KSR1 correlation, replicate 3 |
| --- | --- | --- | --- | --- | --- |
| USP9Y | 0.0797 | 1.34 | 0.0936 | 0.0197 | -0.0131 |
| COL6A1 | 0.361 | 1.09 | 0.365 | 0.288 | 0.324 |
| SULT1A1 | -0.032 | 3.76 | -0.0409 | 0.0245 | -0.0952 |
| ZBTB3 | 0.392 | 1.67 | 0.488 | 0.316 | 0.444 |
| SPTBN4 | -0.262 | 4.8 | 0.0971 | -0.416 | -0.286 |
| TEAD3 | 0.62 | 1.17 | 0.666 | 0.779 | 0.37 |
| DEPP1 | 0.414 | 2.18 | 0.451 | 0.366 | 0.456 |
| ATP6AP2 | 0.0124 | 1.93 | 0.144 | -0.0115 | -0.0556 |
| NRM | -0.251 | 2.55 | -0.0456 | -0.29 | -0.365 |
| IGSF6 | -0.0221 | 1.9 | 0.126 | -0.196 | 0.025 |
| RGS17 | 0.00814 | 2.21 | 0.0937 | -0.168 | -0.00943 |
| GRAMD2B | -0.528 | 3.64 | -0.482 | -0.512 | -0.57 |
| NEMP1 | -0.751 | 2.23 | -0.859 | -0.651 | -0.596 |
| DGCR6L | -0.229 | 4.17 | -0.403 | -0.038 | -0.413 |
| CCNL1 | 0.73 | 2.34 | 0.159 | 0.555 | 0.634 |
| RUNX1 | 0.459 | 1.56 | 0.511 | 0.542 | 0.296 |
| PNPLA6 | -0.00833 | 1.13 | 0.216 | 0.0642 | -0.256 |
| SPC25 | -0.18 | 2.33 | -0.498 | -0.413 | 0.132 |
| HOXA1 | 0.439 | 3.14 | 0.536 | 0.57 | 0.334 |
| MTHFS | -0.408 | 2.69 | -0.369 | -0.364 | -0.4 |
| INTU | 0.0447 | 1.71 | -0.504 | -0.275 | 0.00883 |
| ELOA2 | -0.825 | 3.13 | -0.758 | -0.812 | -0.895 |
| GNAS | 0.662 | 1.52 | 0.565 | 0.703 | 0.581 |
| IL6R | -0.119 | 1.55 | -0.316 | -0.112 | 0.211 |
| RNH1 | -0.107 | 1.58 | -0.158 | 0.432 | -0.175 |
| DSTN | -0.599 | 2.03 | -0.619 | -0.717 | -0.534 |
| LIPT1 | -0.358 | 2.11 | -0.136 | -0.33 | -0.328 |
| SPTLC2 | 0.54 | 1.75 | 0.334 | 0.501 | 0.47 |
| TNFRSF10A | -0.00314 | 3.07 | 0.291 | -0.221 | -0.24 |
| PAFAH1B2 | 0.185 | 3.19 | 0.118 | 0.164 | 0.196 |
| SWAP70 | -0.642 | 1.97 | -0.336 | -0.633 | -0.596 |
| TAF2 | -0.786 | 2.83 | -0.725 | -0.721 | -0.754 |
| RAB13 | -0.43 | 1.96 | -0.305 | -0.555 | -0.0722 |
| DDX42 | 0.256 | 3.21 | 0.237 | 0.311 | -0.133 |
| SLC26A1 | -0.197 | 2.36 | 0.051 | -0.292 | -0.252 |
| GPR157 | 0.592 | 1.36 | 0.396 | 0.645 | 0.626 |
| RFK | 0.85 | 2.09 | 0.861 | 0.844 | 0.677 |
| PCDHGB6 | -0.378 | 2.04 | -0.533 | -0.52 | -0.293 |
| GLO1 | -0.305 | 2.88 | -0.562 | -0.678 | -0.221 |
| DYNC2LI1 | -0.482 | 3.17 | -0.251 | -0.77 | -0.465 |
| ITPRIP | 0.648 | 1.49 | 0.495 | 0.526 | 0.5 |
| GAP43 | 0.199 | 2.27 | 0.41 | 0.168 | -0.357 |
| NAMPT | -0.885 | 1.92 | -0.878 | -0.693 | -0.842 |
| COMMD3 | 0.257 | 1.36 | 0.197 | 0.16 | 0.32 |
| BAGE | 0.126 | 1.9 | 0.166 | 0.0227 | 0.0205 |
| PRKRA | -0.199 | 1.97 | -0.127 | 0.0648 | -0.456 |
| STAMBPL1 | -0.56 | 2.47 | -0.726 | -0.51 | -0.516 |
| KCNC1 | -0.255 | 2.23 | -0.359 | -0.315 | -0.0657 |
| ERLIN2 | 0.14 | 0.983 | 0.176 | -0.607 | 0.603 |
| DIAPH1 | -0.25 | 2.79 | -0.195 | -0.213 | -0.325 |
| ZNF208 | -0.00913 | 1.88 | -0.00503 | -0.0185 | 0.0763 |
| ZNF287 | -0.266 | 2.93 | 0.0909 | -0.425 | -0.533 |
| KCNH8 | 0.327 | 1.84 | 0.317 | 0.207 | 0.172 |
| ADAMTS8 | -0.225 | 1.11 | -0.577 | -0.147 | 0.0832 |
| DENND5A | -0.446 | 3.3 | -0.406 | -0.551 | -0.247 |
| TAAR5 | 0.44 | 2.75 | 0.468 | 0.569 | 0.467 |
| FHL3 | -0.246 | 2.87 | -0.363 | -0.441 | 0.0366 |
| UGT8 | 0.524 | 1.27 | 0.515 | 0.502 | 0.452 |
| OLFML3 | -0.676 | 2.87 | -0.688 | -0.705 | -0.695 |
| QSOX1 | -0.207 | 1.8 | -0.149 | -0.202 | -0.323 |
| ECHS1 | 0.352 | 2.53 | 0.434 | 0.486 | 0.322 |
| ATP6V1G1 | -0.304 | 5.69 | -0.208 | -0.245 | -0.365 |
| RAB4A | -0.368 | 4.15 | -0.4 | -0.329 | -0.32 |
